According to PubChem BioAssay AID1671190 (National Center for Advancing Translational Sciences (NCATS), 2021):
Hit rate of the full screen: of about 580,000 compounds, about 6,100 (1.1%) were called active. Inconclusive results, whose numbers are uncertain, are shown with a selection of clear calls. Calls come from the whole dose curve; as a rule, active = well fitted inhibition curve with a large enough effect; inconclusive = small, poorly fitted or top-dose-only effect, or another doubt; inactive = no such curve, though single readings can be large or run the other way. Where the call is inconclusive, the potency comes from a doubtful curve fit.

Sequences of proteins named here, by UniProt entry; tags and fusion partners are left off. A change or cut given only in a name is not applied to a line headed by its entry.
UniProt P18054: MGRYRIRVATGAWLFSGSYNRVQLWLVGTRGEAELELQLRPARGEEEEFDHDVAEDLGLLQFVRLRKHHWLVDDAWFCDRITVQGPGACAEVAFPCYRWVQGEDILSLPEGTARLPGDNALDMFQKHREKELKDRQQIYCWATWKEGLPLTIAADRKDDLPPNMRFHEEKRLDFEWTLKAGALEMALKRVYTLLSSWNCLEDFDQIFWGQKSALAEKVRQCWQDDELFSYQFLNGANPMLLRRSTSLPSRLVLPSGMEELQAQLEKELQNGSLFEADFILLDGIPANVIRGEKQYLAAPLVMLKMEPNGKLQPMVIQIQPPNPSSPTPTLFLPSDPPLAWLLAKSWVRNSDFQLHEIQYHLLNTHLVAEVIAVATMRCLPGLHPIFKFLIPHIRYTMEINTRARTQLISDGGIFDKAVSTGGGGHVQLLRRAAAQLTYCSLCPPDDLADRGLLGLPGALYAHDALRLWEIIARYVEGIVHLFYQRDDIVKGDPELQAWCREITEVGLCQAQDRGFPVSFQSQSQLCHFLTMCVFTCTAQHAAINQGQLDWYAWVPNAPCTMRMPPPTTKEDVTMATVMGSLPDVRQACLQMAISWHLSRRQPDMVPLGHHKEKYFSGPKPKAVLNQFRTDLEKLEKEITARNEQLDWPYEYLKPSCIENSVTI

Molecular target: Polyunsaturated fatty acid lipoxygenase ALOX12 (Homo sapiens) (UniProt P18054)
Assay: Primary qHTS assay for inhibitors of human arachidonate 12S-lipoxygenase (ALOX12): Round 2
Settings: purified 12hLO, xylenol orange hydroperoxide absorbance; activity change, negative = inhibition: at 108 µM (top of the series) unless noted
Outline: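 Hydroperoxide product was detected by ferrous iron/xylenol orange as the 573 to 405 nm absorbance ratio. Arachidonic acid at 40 uM (final) was turned over for 30 min at room temperature by 150 nM human 12hLO, pH 7.0 Hepes buffer, after 15 min compound preincubation.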
% is set by controls: 0 for no effect and ±100 for the full control effect; potency is the fitted concentration of half-maximal effect.

Structure (SMILES) | Potency | activity change, negative = inhibition
COc1ccccc1Nc1nc(-c2cc(C)ccc2C)cs1 | active: 10 µM | 
CCOC(=O)c1oc2ccccc2c1NC(=O)C(C)(C)C |  | inactive: 13.2%
COC(=O)c1cc(C)nc2onc(-c3ccc(F)cc3)c12 |  | inactive: -14.9%
CCOc1cc(/C=C2/NC(=O)NC2=O)cc(Cl)c1OCc1ccc(Cl)c(Cl)c1 |  | inactive: -6.02%
COc1ccc(NC(=O)Nc2nnc([C@H]3C[C@H](O)[C@@H](CO)O3)s2)cc1 | inconclusive: 25.1 µM [inhibitor, single point] | 
O=C(OCC(=O)c1c[nH]c2ccccc12)c1cccc(O)c1 | inconclusive: 112 µM [inhibitor, partial curve, poor fit] | 
COc1ccc(Cn2nnc3c(=O)[nH]c(C4CCCN(C(=O)c5ccc(C)cc5)C4)nc32)cc1 (configuration not stated) | inconclusive: 126 µM [inhibitor, partial curve, poor fit] | 
O=C(COC(=O)CNS(=O)(=O)c1cccc(F)c1)NCCc1ccccc1 | inconclusive: 63.1 µM [inhibitor, partial curve, poor fit] | 
O=C1NC(=Nc2ccccc2Cl)SC1(CO)CO | inconclusive: 31.6 µM [inhibitor, partial curve, poor fit] | 
Cc1nn(S(=O)(=O)c2ccccc2)c(C)c1S(=O)(=O)N1CCC(C)CC1 | inconclusive: 17.8 µM [inhibitor, partial curve, poor fit] | 
COc1ccc(NC(=O)c2ccc3oc(=O)c(S(=O)(=O)c4ccc(C)cc4)cc3c2)cc1OC | inconclusive: 112 µM [inhibitor, partial curve, poor fit] | 
O=[S+]1([O-])NC2(CCN(CC3CC3)C2)CNc2ccccc21 (configuration not stated) |  | inactive: 37.7% [at 176 µM]
CCN(CC)S(=O)(=O)c1ccc(C(C)NC(=O)c2nn(CC)c(=O)c3ccccc23)cc1 (configuration not stated) |  | inactive: 3.75%
COc1cccc(CN(c2ccccc2C(=O)O)S(=O)(=O)c2ccc(C)cc2)c1 |  | inconclusive: -33.8% [inhibitor]
COc1ccc(NC(=S)NNC(=O)C2CC2c2ccc(C)cc2)cc1 (configuration not stated) | inconclusive: 56.2 µM [inhibitor, partial curve, poor fit] | 
COCCNc1ncc(-c2cccc(OC)c2)c2c1OCC2 |  | inactive: -1.41% [at 176 µM]
CCN=C1SC(C(=O)Nc2cccc(C(=O)O)c2)CC(=O)N1CC (configuration not stated) |  | inactive: 0%
Cc1cc(C(=O)NCCC2=CCCCC2)ccc1[N+](=O)[O-] | inconclusive: 112 µM [inhibitor, partial curve, poor fit] | 
CC1=C[C@@H](CC#N)[C@H](C(C)C)C[C@H]1CC(=O)N1CCC(C)CC1 | inconclusive: 112 µM [inhibitor, partial curve, poor fit] | 
Cc1csc(NC(=O)c2cc3c(s2)CCCCC3)n1 |  | inactive: 0%
Cc1ccccc1-c1nnn(CC(=O)N2CCN(C(=O)c3ccco3)CC2)n1 | inconclusive: 44.7 µM [inhibitor, partial curve, poor fit] | 
O=C(O)c1cccc2c1C(=O)N(Cc1ccncc1)C2 |  | inactive: 0%
Cc1cc(C(=O)OCC(=O)NC2CCCCCCC2)c2ccccc2n1 | inconclusive: 79.4 µM [inhibitor, single point] | 

Pulled by compound from the entries so far:
Structure (SMILES) | Potency | activity change, negative = inhibition
Cc1cc(C(=O)OCC(=O)NC2CCCCCCC2)c2ccccc2n1 | inconclusive: 79.4 µM [inhibitor, single point] | 
CCOc1cc(/C=C2/NC(=O)NC2=O)cc(Cl)c1OCc1ccc(Cl)c(Cl)c1 |  | inactive: -6.02%
O=C1NC(=Nc2ccccc2Cl)SC1(CO)CO | inconclusive: 31.6 µM [inhibitor, partial curve, poor fit] | 
CC1=C[C@@H](CC#N)[C@H](C(C)C)C[C@H]1CC(=O)N1CCC(C)CC1 | inconclusive: 112 µM [inhibitor, partial curve, poor fit] | 

(more compounds)

Structure (SMILES) | Potency | activity change, negative = inhibition
CCN(C(=O)c1cc2cc3ccc(C)cc3nc2o1)c1ccc(OC)cc1 | inconclusive: 100 µM [inhibitor, single point] | 
O=C(O)/C=C/C(=O)Nc1ccc(OC(F)(F)F)cc1 | inconclusive: 112 µM [inhibitor, single point] | 
COc1ccccc1C(=O)Oc1ccc(Cl)cc1 |  | inactive: 14.9%
COc1ccc(NC(=O)c2sc3c(c2C)C(c2cccc(O)c2)CC(=O)N3)cc1 (configuration not stated) | inconclusive: 56.2 µM [inhibitor, partial curve, poor fit] | 
COc1cccc(CNc2ccc(F)c(Cl)c2)c1O |  | inactive: -25.9%
CCN(CC(=O)NCCc1ccc(S(N)(=O)=O)cc1)Cc1ccccc1 |  | inactive: -11.9%
CC(C)(C)N(Cc1ccccc1)C(=O)COc1ncnc2ccccc12 | inconclusive: 112 µM [inhibitor, single point] | 
COc1ccc(C(NC(=O)/C=C\c2ccco2)c2ccc(OC)c(OC)c2)cc1 (configuration not stated) | active: 31.6 µM | 
COc1ccccc1OCCn1c(=S)[nH]c2ccccc21 |  | inactive: 12.9%
CCOc1ccc(NS(=O)(=O)c2ccc(C(=O)NC3CCN(CC)CC3)cc2)cc1 | inconclusive: 70.8 µM [inhibitor, partial curve, poor fit] | 
COc1cc(Nc2c(C#N)cnc3ccccc23)cc(OC)c1OC | inconclusive: 15.8 µM [inhibitor, full curve, poor fit] | 
CC1=NS(=O)(=O)NC(C)=C1CCC(=O)Nc1ccc(C(C)(C)C)cc1 | inconclusive: 50.1 µM [inhibitor, partial curve, poor fit] | 
CCOC(=O)c1ccc(N2CCN(c3ccccc3F)CC2)c(NC(=O)Nc2ccc(Cl)c(Cl)c2)c1 |  | inconclusive: -34.7% [inhibitor]
CC(Cc1ccccc1)NC(=O)c1cc2ccccc2o1 (configuration not stated) |  | inactive: -19.4%
CCOc1ccc(N(CC(=O)NC2CCCCC2)S(=O)(=O)c2c(C)noc2C)cc1 |  | inactive: -2.08%
CC(=O)Nc1cc(C(=O)COC(=O)c2cccc3ccccc23)ccc1O |  | inactive: -2.06%
CC(=O)c1c(CC(=O)O)[nH]n(-c2nc3ccccc3s2)c1=O | inconclusive: 14.1 µM [inhibitor, full curve, poor fit] | 
COc1ccc(C)c2sc(N(Cc3cccnc3)C(C)=O)nc12 | inconclusive: 3.98 µM [inhibitor, full curve, poor fit] | 
CSc1ccc(/C=C/C(=O)c2ccc(Cl)c(Cl)c2Cl)cc1 | inconclusive: 31.6 µM [inhibitor, partial curve, poor fit] | 
O=C(/C=C/c1cccc(C(F)(F)F)c1)c1cc(Cl)ccc1Cl | inconclusive: 39.8 µM [inhibitor, partial curve] | 
CC(=O)Nc1ccc(CN2CCN(CC(C)C)C(CCO)C2)cc1 (configuration not stated) | inconclusive: 112 µM [inhibitor, single point] | 
CCOC(=O)CNC(=O)C1CCC(CNS(=O)(=O)c2cccc3nsnc23)CC1 (configuration not stated) |  | inactive: -5.32%
C[C@H](NC(N)=O)C(=O)OCC(=O)Nc1ccc(OC(F)F)cc1 | inconclusive: 50.1 µM [inhibitor, single point] | 

Structure (SMILES) | Potency | activity change, negative = inhibition
Cc1ccc(CC(=O)N(CC#N)C2CC2)s1 | inconclusive: 39.8 µM [inhibitor, partial curve, poor fit] | 
O=c1[nH]c2ccc(NC(=S)NCCc3ccccc3)cc2[nH]1 | inconclusive: 50.1 µM [inhibitor, partial curve, poor fit] | 
O=C(O)CCC(=O)Nc1ccc(Oc2ncnc3cc(Cl)ccc23)nc1 | inconclusive: 141 µM [inhibitor, partial curve, poor fit] | 
O=C(N/N=C/c1ccc2c(c1)OCO2)C(O)c1ccccc1 (configuration not stated) | inconclusive: 20 µM [inhibitor, full curve, poor fit] | 
COc1ccc(C(=O)N2CCCn3nc(C)c(-c4ccccc4C(C)C)c32)cc1 |  | inactive: 14.6% [at 176 µM]
Cc1ccccc1OCC(=O)N/N=C/c1cccc(Oc2ccc([N+](=O)[O-])cc2[N+](=O)[O-])c1 |  | inactive: 16.3%
O=C(NCc1ccc2c(c1)OCO2)c1ccc2c(c1)OCCO2 | inconclusive: 8.91 µM [inhibitor, partial curve, poor fit] | 
CCn1c2c(c(=O)n1-c1ccccc1)CCN(Cc1ncccn1)C2 | inconclusive: 3.16 µM [inhibitor, full curve, poor fit] | 
O=C(CC(Nc1ccc(F)cc1)C(=O)OCC(=O)c1cccs1)c1ccccc1 (configuration not stated) |  | inactive: 2.33%
COc1ccc(C2CC(c3cccc(C(F)(F)F)c3)=NN2c2ccc(S(N)(=O)=O)cc2)cc1 (configuration not stated) |  | inactive: -49.1%
C=CCNc1nc(C(=O)OCC(=O)c2ccc(C)c([N+](=O)[O-])c2)cs1 | inconclusive: 5.01 µM [inhibitor, full curve] | 
COc1ccc(S(=O)(=O)N2CCOCC2)cc1NC(=O)Cc1ccc(Cl)c(Cl)c1 | inconclusive: 2.82 µM [inhibitor, full curve, poor fit] | 
O=C1OCCN1C(=O)[C@H]1[C@H](c2ccc(F)cc2)C(c2ccccc2)=NN1c1ccccc1 | inconclusive: 100 µM [inhibitor, single point] | 
CCCN1C(=O)/C(=C/c2nc3ccccc3c(=O)[nH]2)c2ccccc21 | inconclusive: 100 µM [inhibitor, partial curve, poor fit] | 
C=CC[C@H](CC(=O)N(CCO)Cc1ccccc1)C(=O)N[C@@H](COC(=O)[C@@H](CC=C)Cc1ccc(F)cc1)Cc1ccccc1 | inconclusive: 63.1 µM [inhibitor, partial curve, poor fit] | 
COCCn1c(SC(C)C(=O)Nc2ccc(Cl)cn2)nc2ccccc21 (configuration not stated) | inconclusive: 35.5 µM [inhibitor, partial curve, poor fit] | 
FC(F)(F)c1cc(Cl)c2n[nH]c(=S)n2c1 | inconclusive: 6.31 µM [inhibitor, full curve, poor fit] | 
CCN(c1ccccc1)S(=O)(=O)c1ccc(OCC(=O)N2CCCC2)cc1 | inconclusive: 141 µM [inhibitor, single point] | 
CN(CCN1CCOCC1)C(=O)C1CCC(=O)N(Cc2ccc(Cl)cc2)C1 (configuration not stated) | inconclusive: 35.5 µM [inhibitor, full curve, poor fit] | 
Cc1cc(C)nc(SCc2nc3cc(NC(=O)c4ccc(F)c(Cl)c4)ccc3n2C)n1 |  | inactive: -4.42%
CCc1nc2c(OCC(=O)C(C)(C)C)cccn2c1N(C)C(=O)c1cccs1 | inconclusive: 50.1 µM [inhibitor, partial curve, poor fit] | 

3 structures out of the list, arranged by molar mass, high to low:
Structure (SMILES) | Potency | activity change, negative = inhibition
O=C1OCCN1C(=O)[C@H]1[C@H](c2ccc(F)cc2)C(c2ccccc2)=NN1c1ccccc1 | inconclusive: 100 µM [inhibitor, single point] | 
O=C(O)CCC(=O)Nc1ccc(Oc2ncnc3cc(Cl)ccc23)nc1 | inconclusive: 141 µM [inhibitor, partial curve, poor fit] | 
O=C(N/N=C/c1ccc2c(c1)OCO2)C(O)c1ccccc1 (configuration not stated) | inconclusive: 20 µM [inhibitor, full curve, poor fit] | 
